Assay results from PubChem BioAssay AID540256 (National Center for Advancing Translational Sciences (NCATS), 2011).
Among all 300,000 compounds or so, about 3,700 (1.2%) were called active. The inconclusive results got no clear call from the source; some entries with a clear call stand among them for comparison. The call rests on the fitted dose curve; tested in HEK293 cells. Where the call is inconclusive, the potency comes from a doubtful curve fit.

Test: qHTS for Inhibitors of binding or entry into cells for Lassa Virus; further: nearly all actives have a fitted effect of over 50% in size
Conditions: Lassa virus pseudotype entry inhibition, cell reporter; activity change, negative = inhibition: at 37.9 µM (top of the series) unless noted
On the % scale 0 is the no-effect control and ±100 the full control effect; potency means the concentration at half of the fitted maximal effect.

Row | SMILES | Potency | activity change, negative = inhibition
1 | OC(c1nc2ccc(F)cc2[nH]1)C(O)c1nc2ccc(F)cc2[nH]1 (configuration not stated) | inconclusive: 1.26 µM [activator, single point] | 
2 | Cc1cccc(OCC(=O)Nc2ccc3c(c2)OCCO3)c1 | inconclusive: 6.51 µM [activator, partial curve, poor fit] | 
3 | N=C(N)SCc1ccc(Cl)cc1Cl | inconclusive: 29.1 µM [inhibitor, single point] | 
4 | O=C(Nc1cc(S(=O)(=O)Nc2ccc(Cl)cc2)ccc1N1CCCCC1)c1ccc(F)cc1 | inconclusive: 11.2 µM [inhibitor, partial curve, poor fit] | 
5 | CC1=NOC(=O)/C1=C\c1ccc(-c2cccc(Cl)c2)o1 | inconclusive: 25.1 µM [inhibitor, single point] | 
6 | COCCCNC(=O)C1CCN(Cc2cc3ccccc3n2Cc2cccc(Cl)c2)CC1 | inconclusive: 35.5 µM [inhibitor, single point] | 
7 | Cc1cccc(OCC2=NS(=O)(=O)c3ccccc3N2)c1 |  | inactive: 0%
8 | CCOC(=O)c1ccc(Nc2ncccc2[N+](=O)[O-])cc1 | inconclusive: 0.708 µM [activator, partial curve, poor fit] | 
9 | CC(NCc1ccc2c(c1)n(C)c(=O)n2C)c1ccccc1 (configuration not stated) |  | inactive: -0.713% [at 46.1 µM]
10 | CCN(CC)c1ncnc2sc(C(=O)N3CCN(c4ccc(OC)cc4)CC3)c(C)c12 | inconclusive: 1.41 µM [activator, partial curve, poor fit] | 
11 | COc1cc(NC(=O)CSc2cc(=O)n(C)c3ccccc23)cc(OC)c1OC |  | inactive: 12.5% [at 46.1 µM]
12 | Cc1c(C(=O)N(C)Cc2ccccc2)sc2nc(-c3ccc(F)cc3)cn12 | inconclusive: 10 µM [inhibitor, partial curve, poor fit] | 
13 | CCOC(=O)c1cccc(NC(=O)c2ccc(N(C)C)cc2)c1 | inconclusive: 15.8 µM [inhibitor, single point] | 
14 | COc1cccc(-c2cc(C(=O)NCc3ccccc3)no2)c1 | inconclusive: 2 µM [activator, full curve] | 
15 | CCN(c1ccccc1)S(=O)(=O)c1ccc(C(=O)NCC(c2cccs2)N(C)C)cc1 (configuration not stated) | inconclusive: 35.5 µM [inhibitor, single point] | 
16 | CCCc1nc2c(c(=O)c3ccccc3n2C)c(=O)n1C1CCCCCC1 | inconclusive: 22.4 µM [inhibitor, partial curve, poor fit] | 
17 | COc1ccc(N2CCN(C(=O)c3ccc4c(c3)CCN4S(=O)(=O)c3ccccc3)CC2)cc1 |  | inactive: -4.88% [at 46.1 µM]
18 | COc1ccccc1CNCC(=O)Nc1cc(S(=O)(=O)N2CCCCC2)ccc1C | inconclusive: 35.5 µM [inhibitor, single point] | 
19 | COc1ccc(-c2[nH]ncc2CN(CCO)Cc2cccs2)c(F)c1 |  | inconclusive: 8.7% [activator]
20 | COc1ccc(NC2=CC(=O)CC(c3ccccc3)C2)cc1 (configuration not stated) | inconclusive: 3.16 µM [inhibitor, single point] | 
21 | CC(=O)c1cccc(NC(=O)c2ccc(N(Cc3ccc(C)cc3)S(C)(=O)=O)cc2)c1 | inconclusive: 20.6 µM [inhibitor, single point] | 
22 | C=CCn1c(SCCOc2ccc(OC)cc2)nnc1C(C)NC(=O)Cc1ccc(OC)cc1 (configuration not stated) | inconclusive: 8.2 µM [inhibitor, partial curve] | 
23 | O=c1c2c(nc3cc(-c4ccc(F)cc4)[nH]n13)CCCC2 | inconclusive: 7.94 µM [inhibitor, partial curve, poor fit] | 

Row | SMILES | Potency | activity change, negative = inhibition
24 | COc1ccc(N(C)S(=O)(=O)c2cccc(C(=O)OCC(=O)NCc3ccccc3OC)c2)cc1 | inconclusive: 11.2 µM [inhibitor, single point] | 
25 | COc1ccc(COC(=O)Nc2cc3c(C(F)(F)F)nn(C)c3s2)cc1 |  | inactive: -15.9%
26 | Cc1ccccc1C(O)(Cc1ccccc1)C1CN2CCC1CC2 (configuration not stated) | inconclusive: 22.4 µM [inhibitor, single point] | 
27 | CCOc1ccccc1NC(=O)C1CCCN(S(=O)(=O)c2cccs2)C1 (configuration not stated) |  | inactive: 12.2% [at 46.1 µM]
28 | O=C(CCCN1C(=O)/C(=C\c2ccccc2)SC1=S)Nc1ccccc1O |  | inactive: -22.6% [at 46.1 µM]
29 | COc1ccc(NS(=O)(=O)c2ccc(NC(=O)c3ccc(N(C)S(C)(=O)=O)cc3)cc2)c(OC)c1 | inconclusive: 1 µM [inhibitor, partial curve, poor fit] | 
30 | Cc1noc(C)c1COc1ccccc1C(=O)N1CCN(S(=O)(=O)c2cccc([N+](=O)[O-])c2)CC1 |  | inactive: -3.93%
31 | COc1cc2c(C(=O)N3CCN(c4ccc(F)cc4)CC3)cn(CC(C)C)c(=O)c2cc1OC |  | inactive: 3.29% [at 46.1 µM]
32 | CCCc1cc(=O)[nH]c(SCc2csc(-c3ccccc3)n2)n1 | inconclusive: 1.12 µM [inhibitor, single point] | 
33 | CSc1nn(CC(=O)Nc2ccc(C)cc2C)c(N)c1S(=O)(=O)c1ccc(Cl)cc1 | inconclusive: 35.5 µM [inhibitor, single point] | 
34 | CCNC(=O)CN(C1CCCCC1)S(C)(=O)=O |  | inactive: -10.9%
35 | CC(=O)NCC(=O)NC(C(=O)Nc1ccc2c(c1)OCCO2)c1ccc(C)cc1 (configuration not stated) | inconclusive: 23.1 µM [activator, partial curve, poor fit] | 
36 | C/C(=N\Nc1ccc2nncn2n1)c1ccco1 |  | inactive: -0.842%
37 | O=C(Nc1cnn(Cc2ccccc2)c1)c1nc2ncccn2n1 |  | inactive: 1.49%
38 | Cc1ccc(NS(=O)(=O)c2ccc3nc(-c4ccccc4)[nH]c3c2)cc1Cl | inconclusive: 17.8 µM [inhibitor, single point] | 
39 | CC(C)n1cc(-c2ccc(Cl)cc2)cc(C#N)c1=O | inconclusive: 10 µM [activator, partial curve, poor fit] | 
40 | CCCCCC(=O)N1C[C@H](n2cc(COC(=O)c3ccccc3)nn2)[C@@H](O)C[C@H]1c1ccc(Cl)cc1 | inconclusive: 3.15 µM [activator, single point] | 
41 | COc1cccc(/C=C2\SC(=S)N(N3CCOCC3)C2=O)c1OC |  | inactive: -7.58%
42 | COc1ccccc1NS(=O)(=O)c1ccc2c(c1)CCN2C(=O)CCC(=O)O | inconclusive: 6.31 µM [activator, partial curve, poor fit] | 
43 | Cc1nc(N2CCN(c3ccccc3O)CC2)c2c(-c3ccccc3)csc2n1 | inconclusive: 22.4 µM [inhibitor, single point] | 
44 | COc1ccc(NS(=O)(=O)c2ccc3c(c2)CC(C)N3C(=O)C2CCC2)cc1OC (configuration not stated) | inconclusive: 0.891 µM [inhibitor, full curve, poor fit] | 
45 | COc1cc(-c2nc3ccccn3c2Nc2ccccc2C)ccc1O | inconclusive: 35.5 µM [inhibitor, single point] | 
46 | COc1ccc(CNC(=O)c2cc(=O)c3ccc(C)c(C)c3o2)cc1 | inconclusive: 8.91 µM [activator, partial curve, poor fit] | 

Row | SMILES | Potency | activity change, negative = inhibition
47 | CCOC(=O)c1cnc2c(cnn2CC)c1NN=C(C)C |  | inactive: 2.87%
48 | CCOc1ccc(S(=O)(=O)NCC(c2ccco2)S(=O)(=O)c2ccc(C)cc2)cc1 (configuration not stated) | inconclusive: 2 µM [inhibitor, full curve] | 
49 | COc1ccc(Nc2cc(C(=O)NCCCN(C)Cc3ccccc3)c3ccccc3n2)c(OC)c1 | inconclusive: 0.631 µM [inhibitor, full curve, poor fit] | 
50 | c1nc(SSc2ncnc3nc[nH]c23)c2[nH]cnc2n1 | inconclusive: 2.24 µM [inhibitor, full curve, poor fit] | 
51 | CCOC(=O)CSC1=Nc2ccccc2C2=NC(CC(=O)NCc3ccc4c(c3)OCO4)C(=O)N12 (configuration not stated) |  | inactive: 16.8%
52 | Cc1ccc(CN(CC(=O)NC2CCCC2)C(=O)c2csnn2)cc1 | inconclusive: 1.26 µM [inhibitor, single point] | 
53 | CCOC(=O)C1(Cc2cccc(Cl)c2)CCCN(C(=O)CCNC(C)=O)C1 (configuration not stated) |  | inactive: 15.4%
54 | CC(C)(Cc1ccc(O)cc1)NC(=O)c1ccccc1 | inconclusive: 1.26 µM [activator, single point] | 
55 | COc1cccc(N2CCN(C(=O)CC(C)(C)CC3=NS(=O)(=O)c4ccccc4N3)CC2)c1 | inconclusive: 10 µM [inhibitor, partial curve, poor fit] | 
56 | Nc1ncnc2c(C3OC(CO)C(O)C3O)scc12 (configuration not stated) | inconclusive: 0.501 µM [inhibitor, full curve, poor fit] | 
57 | COc1ccc(OCC(=O)N2CCN(S(=O)(=O)c3ccc(Cl)cc3)CC2)cc1 | inconclusive: 3.26 µM [activator, single point] | 
58 | C=CCn1c(SCc2c(C)noc2C)nc2sc3c(c2c1=O)CCC(C)C3 (configuration not stated) | inconclusive: 1.58 µM [inhibitor, full curve] | 
59 | O=C(Nc1nc(-c2cccs2)cs1)c1ccco1 |  | inactive: -4.87%
60 | CCOC(=O)c1c(Nc2cccc(C(=O)OC)c2)nnc(-c2ccccc2)c1-c1ccccc1 | inconclusive: 3.55 µM [inhibitor, partial curve, poor fit] | 
61 | Cc1ccc(NC2c3ncccc3C(=O)N2C2CCCCC2)cc1C (configuration not stated) | inconclusive: 0.206 µM [activator, full curve, poor fit] | 
62 | CCOc1ccccc1-c1noc(CSc2nnc(-c3ccccc3)n2-c2cccc(C)c2)n1 |  | inactive: -27.4% [at 46.1 µM]
63 | CN1CCc2c(sc3c2C(=O)NC(c2ccccn2)N3)C1 (configuration not stated) |  | inactive: 3.55%
64 | O=C1CN(C(=O)/C=C/c2ccc(Cl)cc2)c2ccccc2N1 | inconclusive: 35.5 µM [inhibitor, single point] | 
65 | Cc1ccc(C(=O)C(C(=O)/C=C/c2ccccc2)=C2SCCCS2)cc1 | active: 22.4 µM | 
66 | CN1CCCN(C(c2ccccc2)c2ccc(Cl)cc2)CC1 (configuration not stated) | active: 13 µM | 
67 | CC1=Nc2ccccc2/C1=C/c1sc(=N)n(-c2nccs2)c1O | active: 10 µM | 

Some of the entries so far, with each value named:
O=C(Nc1nc(-c2cccs2)cs1)c1ccco1
  activity change, negative = inhibition: inactive: -4.87%
CCOC(=O)c1c(Nc2cccc(C(=O)OC)c2)nnc(-c2ccccc2)c1-c1ccccc1
  Potency: inconclusive: 3.55 µM [inhibitor, partial curve, poor fit]
Cc1ccc(NC2c3ncccc3C(=O)N2C2CCCCC2)cc1C (configuration not stated)
  Potency: inconclusive: 0.206 µM [activator, full curve, poor fit]
